Data reported in article PMC3474824.
Where a chain is given by its changes, count along the chain named. Names may count otherwise. Results are given in words; binding and its absence hold for the method and conditions named. In cells and extracts the contact can be indirect. Some results given as binding are weak or reduced against the parent protein; the word gives no strength. Values belong to the binder of their own block, whether it stands above or below them.

Sequences of proteins named here, by UniProt entry; tags and fusion partners are left off.
UniProt P05549: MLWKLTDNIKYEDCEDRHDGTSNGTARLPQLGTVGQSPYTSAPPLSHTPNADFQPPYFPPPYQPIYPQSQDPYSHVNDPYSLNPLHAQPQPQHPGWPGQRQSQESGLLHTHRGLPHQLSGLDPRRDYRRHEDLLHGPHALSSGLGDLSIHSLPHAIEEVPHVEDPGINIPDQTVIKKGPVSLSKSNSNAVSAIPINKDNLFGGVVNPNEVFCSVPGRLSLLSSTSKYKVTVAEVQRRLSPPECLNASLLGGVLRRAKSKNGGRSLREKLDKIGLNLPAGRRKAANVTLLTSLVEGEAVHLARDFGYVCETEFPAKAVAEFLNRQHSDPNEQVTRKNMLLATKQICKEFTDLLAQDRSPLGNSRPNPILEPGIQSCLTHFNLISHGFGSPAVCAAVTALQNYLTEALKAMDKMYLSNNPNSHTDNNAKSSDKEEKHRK

Molecular target: GST-TFAP2A (UniProt P05549)
Assay: pull-down; GST fusion proteins (GST-TFAP2A, GST-EP300CH1) as bait, 35S-labelled CITED2 or CITED2-T166N as prey, read by autoradiography of gels; performed as previously described (ref. 10); only the target purified

binding: binds
B1: CITED2-T166N, 35S-labelled (protein, UniProt Q99967 1-270)
chain: MADHMMAMNHGRFPDGTNGLHHHPAHRMGMGQFPSPHHHQQQQPQHAFNALMGEHIHYGAGNMNATSGIRHAMGPGTVNGGHPPSALAPAARFNNSQFMGPPVASQGGSLPASMQLQKLNNQYFNHHPYPHNHYMPDLHPAAGHQMNGTNQHFRDCNPKHSGGSSNPGGSGGSSTPGGSGSSSGGGAGSSNSGGGSGSGNMPASVAHVPAAMLPPNVIDTDFIDEEVLMSLVIEMGLDRIKELPELWLGQNEFDFMTDFVCKQQPSRVSC
modifications: 35S-labelled

binding: binds
B2: CITED2 (wild type), 35S-labelled (protein, UniProt Q99967 1-270)
chain: B1 chain with N166T
modifications: 35S-labelled
